From paper doi:10.1101/2024.05.16.594391
No constants are given. Whether binding was seen depends on the method and setting. In cells and extracts the contact can be indirect. Some entries that bind do so weakly or less than the wild type. Tags and fused reporters may be left off the sequences shown.

Biological target: mitochondrial thioredoxin reductase (TXNRD2), V5-tagged (human) (UniProt Q9NNW7)
Test: co-IP

binding: binds
B1: mitochondrial thioredoxin (TXN2), myc-tagged (protein, UniProt Q99757 60-166)
chain: TTFNIQDGPDFQDRVVNSETPVVVDFHAQWCGPCKILGPRLEKMVAKQHGKVVMAKVDIDDHTDLAIEYEVSAVPTVLAMKNGDVVDKFVGIKDEDQLEAFLKKLIG
